Data from article PMC6002401.
No constants are given. Whether binding was seen depends on the method and setting. Binding seen in cells or lysates may run through a third protein. Some entries that bind do so weakly or less than the wild type. For some assays here: Sequences can lack the tags named with a protein.

Sequences of proteins named here, by UniProt entry; tags and fusion partners are left off.
UniProt P98177: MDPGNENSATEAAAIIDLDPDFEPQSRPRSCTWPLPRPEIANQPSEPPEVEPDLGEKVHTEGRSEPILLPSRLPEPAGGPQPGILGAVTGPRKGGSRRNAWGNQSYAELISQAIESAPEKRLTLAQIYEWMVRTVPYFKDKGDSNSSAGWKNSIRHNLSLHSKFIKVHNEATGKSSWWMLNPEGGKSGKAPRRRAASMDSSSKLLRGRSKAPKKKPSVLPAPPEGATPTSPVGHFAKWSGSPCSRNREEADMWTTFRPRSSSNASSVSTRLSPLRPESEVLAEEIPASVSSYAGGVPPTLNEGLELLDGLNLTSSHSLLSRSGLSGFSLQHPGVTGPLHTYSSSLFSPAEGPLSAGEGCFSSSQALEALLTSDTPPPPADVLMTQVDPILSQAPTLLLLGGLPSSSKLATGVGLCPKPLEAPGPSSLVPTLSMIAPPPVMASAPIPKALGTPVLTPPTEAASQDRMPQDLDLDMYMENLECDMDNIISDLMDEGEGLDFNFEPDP
UniProt Q9H4A3: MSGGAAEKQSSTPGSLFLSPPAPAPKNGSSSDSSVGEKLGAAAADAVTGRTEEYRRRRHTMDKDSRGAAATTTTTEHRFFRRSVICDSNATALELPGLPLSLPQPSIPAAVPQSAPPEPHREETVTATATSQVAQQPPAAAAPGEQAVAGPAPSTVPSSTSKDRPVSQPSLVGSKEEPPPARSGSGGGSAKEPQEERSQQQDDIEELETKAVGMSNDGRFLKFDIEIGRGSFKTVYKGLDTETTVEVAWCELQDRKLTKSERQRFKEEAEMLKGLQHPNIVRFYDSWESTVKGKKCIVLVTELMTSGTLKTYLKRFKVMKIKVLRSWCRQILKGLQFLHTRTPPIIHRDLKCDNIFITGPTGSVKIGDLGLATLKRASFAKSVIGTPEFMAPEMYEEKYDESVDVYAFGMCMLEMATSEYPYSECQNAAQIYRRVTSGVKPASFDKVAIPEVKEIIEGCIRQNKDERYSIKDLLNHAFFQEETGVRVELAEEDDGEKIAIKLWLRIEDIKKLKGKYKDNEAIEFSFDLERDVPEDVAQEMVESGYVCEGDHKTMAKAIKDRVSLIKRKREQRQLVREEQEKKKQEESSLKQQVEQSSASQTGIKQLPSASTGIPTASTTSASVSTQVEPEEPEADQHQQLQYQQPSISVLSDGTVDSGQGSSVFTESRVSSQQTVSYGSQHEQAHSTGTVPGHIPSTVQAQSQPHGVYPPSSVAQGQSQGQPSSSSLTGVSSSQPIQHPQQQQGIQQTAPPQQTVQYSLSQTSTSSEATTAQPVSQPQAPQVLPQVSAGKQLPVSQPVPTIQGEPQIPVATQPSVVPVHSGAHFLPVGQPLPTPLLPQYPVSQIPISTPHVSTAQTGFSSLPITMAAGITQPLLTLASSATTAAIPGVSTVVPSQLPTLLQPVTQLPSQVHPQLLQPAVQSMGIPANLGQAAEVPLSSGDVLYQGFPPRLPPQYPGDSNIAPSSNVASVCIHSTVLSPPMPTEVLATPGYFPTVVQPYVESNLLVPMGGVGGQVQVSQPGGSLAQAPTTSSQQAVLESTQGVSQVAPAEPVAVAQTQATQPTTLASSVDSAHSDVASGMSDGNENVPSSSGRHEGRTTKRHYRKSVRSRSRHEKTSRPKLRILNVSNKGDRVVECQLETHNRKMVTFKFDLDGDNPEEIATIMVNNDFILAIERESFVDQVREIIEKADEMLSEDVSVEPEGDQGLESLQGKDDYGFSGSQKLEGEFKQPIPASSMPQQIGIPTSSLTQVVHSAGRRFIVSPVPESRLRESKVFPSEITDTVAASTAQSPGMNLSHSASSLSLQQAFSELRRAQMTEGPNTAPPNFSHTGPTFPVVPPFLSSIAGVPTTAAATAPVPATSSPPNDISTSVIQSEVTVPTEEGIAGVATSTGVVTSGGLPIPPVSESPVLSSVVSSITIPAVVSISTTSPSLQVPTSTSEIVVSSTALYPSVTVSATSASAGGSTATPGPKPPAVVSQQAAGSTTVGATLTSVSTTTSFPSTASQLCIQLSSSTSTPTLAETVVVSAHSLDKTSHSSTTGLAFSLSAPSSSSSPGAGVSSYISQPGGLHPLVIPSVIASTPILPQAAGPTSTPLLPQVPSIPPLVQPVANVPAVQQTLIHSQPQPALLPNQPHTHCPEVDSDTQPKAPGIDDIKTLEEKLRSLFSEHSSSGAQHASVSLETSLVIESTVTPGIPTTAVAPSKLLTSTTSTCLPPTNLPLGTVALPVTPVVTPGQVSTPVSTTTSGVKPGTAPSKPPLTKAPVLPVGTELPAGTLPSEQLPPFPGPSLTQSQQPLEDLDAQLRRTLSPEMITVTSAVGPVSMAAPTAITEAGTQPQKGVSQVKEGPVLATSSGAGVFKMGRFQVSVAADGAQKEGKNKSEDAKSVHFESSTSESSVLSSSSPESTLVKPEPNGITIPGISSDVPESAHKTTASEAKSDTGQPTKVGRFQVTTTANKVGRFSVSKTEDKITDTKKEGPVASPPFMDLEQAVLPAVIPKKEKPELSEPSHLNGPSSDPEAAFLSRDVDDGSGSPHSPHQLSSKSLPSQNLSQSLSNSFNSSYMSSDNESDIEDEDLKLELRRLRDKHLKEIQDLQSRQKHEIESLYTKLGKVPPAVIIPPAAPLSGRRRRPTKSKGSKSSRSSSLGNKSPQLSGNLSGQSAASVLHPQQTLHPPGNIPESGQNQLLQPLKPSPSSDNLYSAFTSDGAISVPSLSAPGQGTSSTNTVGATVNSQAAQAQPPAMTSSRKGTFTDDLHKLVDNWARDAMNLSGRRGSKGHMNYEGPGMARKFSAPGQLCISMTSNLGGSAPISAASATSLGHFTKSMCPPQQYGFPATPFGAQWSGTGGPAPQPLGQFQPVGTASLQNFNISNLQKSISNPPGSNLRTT

What was measured:
[1] = target: T1, FLAG-tagged human KLHL3 (human) (UniProt Q9UH77); experiment: co-IP; Halo-tagged WNK1 co-expressed with FLAG-tagged KLHL3 or FOXO4 in HEK293T cells (left panel) and C2C12 cells (right panel); precipitating antibody and buffer not stated
T1 sequence: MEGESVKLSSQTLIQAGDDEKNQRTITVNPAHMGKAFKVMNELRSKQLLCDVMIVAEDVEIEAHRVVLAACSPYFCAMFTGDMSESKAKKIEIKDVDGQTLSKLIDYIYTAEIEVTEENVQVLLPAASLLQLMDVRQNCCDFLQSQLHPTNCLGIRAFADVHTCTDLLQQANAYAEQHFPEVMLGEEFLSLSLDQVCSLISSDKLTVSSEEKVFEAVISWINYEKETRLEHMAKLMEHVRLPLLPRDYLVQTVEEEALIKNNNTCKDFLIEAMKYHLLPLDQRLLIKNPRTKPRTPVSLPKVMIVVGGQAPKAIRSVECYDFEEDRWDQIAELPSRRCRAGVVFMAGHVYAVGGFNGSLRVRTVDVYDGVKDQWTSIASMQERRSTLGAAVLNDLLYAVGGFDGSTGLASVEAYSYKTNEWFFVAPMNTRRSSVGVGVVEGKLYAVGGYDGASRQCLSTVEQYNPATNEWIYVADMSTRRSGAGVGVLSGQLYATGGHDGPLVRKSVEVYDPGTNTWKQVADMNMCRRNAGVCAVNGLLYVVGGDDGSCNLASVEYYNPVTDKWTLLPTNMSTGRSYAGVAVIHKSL

human FOXO4 (human) = human FOXO4 (human) (UniProt P98177); experiment: as above

binding [1]: binds | binding (human FOXO4 (human)): no binding
Substance: Halo-tagged human WNK1 (from UniProt Q9H4A3 1-2382) (enzyme)
